Source: patent publication US9598389B2, “Dihydrobenzofuran derivatives as insecticidal compounds” (SYNGENTA PARTICIPATIONS AG, priority 2013, dated 2017)
Some of these results come from one statement about several compounds together. For at least one compound, name, drawing or mass did not settle the structure.

Columns and labels:
Assay type in all cases: in vivo
[1] = system: Heliothis virescens (Tobacco Budworm); assay: Heliothis virescens egg/larval test on artificial diet; conditions: application rate of 200 ppm; eggs 0-24 h old; 5 days after infestation
Protocol: Heliothis virescens (Tobacco Budworm):
Eggs (0-24 h old) were placed in 24-well microtiter plates on artificial diet and treated with aqueous test solutions prepared from 10,000 ppm DMSO stock solutions by pipetting. The samples were assessed for egg and larval mortality 5 days after infestation.

[2] = system: Spodoptera Littoralis (Egyptian Cotton Leaf Worm); assay: Spodoptera littoralis cotton leaf disc spray test; conditions: application rate of 200 ppm; L1 larvae; 3 days after infestation
Protocol: Spodoptera Littoralis (Egyptian Cotton Leaf Worm)
Cotton leaf discs were placed on agar in 24-well microtiter plates and sprayed with aqueous test solutions prepared from 10,000 ppm DMSO stock solutions. After drying the leaf discs were infested with five L1 larvae. The samples were assessed for mortality, anti-feedant effect, and growth inhibition in comparison to untreated samples 3 days after infestation. Control of Spodoptera littoralis by a test sample is when at least one of mortality, anti-feedant effect, and growth inhibition is higher than the untreated sample.

[3] = system: Plutella xylostella (Diamond Back Moth); assay: Plutella xylostella L2 larvae test on artificial diet; conditions: application rate of 200 ppm, 5 days after infestation
Protocol: Plutella xylostella (Diamond Back Moth):
24-well microtiter plates with artificial diet were treated with aqueous test solutions prepared from 10,000 ppm DMSO stock solutions by pipetting. After drying, the plates were infested with L2 larvae (10 to 15 per well). The samples were assessed for mortality and growth inhibition in comparison to untreated samples 5 days after infestation.

## CC=C(OC)C(=O)Nc1cccc(-c2ccc3c(c2)CC(c2cccc(C(F)(F)F)c2)(C(F)(F)F)O3)c1 (stereo not drawn) [Compound 124]
[1]
  egg or larval mortality: ≥ 80%
[2]
  control (at least one of mortality, anti-feedant effect, growth inhibition): at least 80%
[3]
  effect in at least one of the two categories (mortality or growth inhibition): ≥ 80%

## CSCC(=O)Nc1cccc(-c2ccc3c(c2)CC(c2cc(Cl)cc(Cl)c2)(C(F)(F)F)O3)c1F (stereo not drawn) [Compound 45]
[1]
  egg or larval mortality: ≥ 80%
[2]
  control (at least one of mortality, anti-feedant effect, growth inhibition): at least 80%
[3]
  effect in at least one of the two categories (mortality or growth inhibition): ≥ 80%

## CCC(Cl)C(=O)Nc1cccc(-c2ccc3c(c2)CC(c2cc(Cl)cc(Cl)c2)(C(F)(F)F)O3)c1 (stereo not drawn) [Compound 100]
[1]
  egg or larval mortality: ≥ 80%
[2]
  control (at least one of mortality, anti-feedant effect, growth inhibition): at least 80%
[3]
  effect in at least one of the two categories (mortality or growth inhibition): ≥ 80%

## O=C(C1CC1)N(C(=O)C1CC1)c1nccc(-c2ccc3c(c2)CC(c2cc(Cl)cc(Cl)c2)(C(F)(F)F)O3)n1 (stereo not drawn) [Compound 140]
[1]
  egg or larval mortality: ≥ 80%
[2]
  control (at least one of mortality, anti-feedant effect, growth inhibition): at least 80%
[3]
  effect in at least one of the two categories (mortality or growth inhibition): ≥ 80%

## O=C(Nc1cccc(-c2ccc3c(c2)CC(c2cccc(C(F)(F)F)c2)(C(F)(F)F)O3)c1)c1ccccc1F (stereo not drawn) [Compound 108]
[1]
  egg or larval mortality: ≥ 80%
[2]
  control (at least one of mortality, anti-feedant effect, growth inhibition): at least 80%
[3]
  effect in at least one of the two categories (mortality or growth inhibition): ≥ 80%

## O=C(Nc1cccc(-c2ccc3c(c2)CC(c2cccc(C(F)(F)F)c2)(C(F)(F)F)O3)c1)c1cc[nH]n1 (stereo not drawn) [Compound 62]
[1]
  egg or larval mortality: ≥ 80%
[2]
  control (at least one of mortality, anti-feedant effect, growth inhibition): at least 80%
[3]
  effect in at least one of the two categories (mortality or growth inhibition): ≥ 80%

## CCC(=O)Nc1cc(-c2ccc3c(c2)CC(c2cc(Cl)cc(Cl)c2)(C(F)(F)F)O3)cnc1OC (stereo not drawn) [Compound 242]
[1]
  egg or larval mortality: ≥ 80%
[2]
  control (at least one of mortality, anti-feedant effect, growth inhibition): at least 80%
[3]
  effect in at least one of the two categories (mortality or growth inhibition): ≥ 80%

## CC(Cl)=CC(=O)Nc1cccc(-c2ccc3c(c2)CC(c2cccc(C(F)(F)F)c2)(C(F)(F)F)O3)c1 (stereo not drawn) [Compound 171]
[1]
  egg or larval mortality: ≥ 80%
[2]
  control (at least one of mortality, anti-feedant effect, growth inhibition): at least 80%
[3]
  effect in at least one of the two categories (mortality or growth inhibition): ≥ 80%

## CC(=O)Nc1cc(-c2ccc3c(c2)CC(c2cc(C(F)(F)F)cc(C(F)(F)F)c2)(C(F)(F)F)O3)c(F)cc1Cl (stereo not drawn) [Compound 247]
[1]
  egg or larval mortality: ≥ 80%
[2]
  control (at least one of mortality, anti-feedant effect, growth inhibition): at least 80%
[3]
  effect in at least one of the two categories (mortality or growth inhibition): ≥ 80%

## O=C(Cn1cccn1)Nc1cccc(-c2ccc3c(c2)CC(c2cccc(C(F)(F)F)c2)(C(F)(F)F)O3)c1 (stereo not drawn) [Compound 58]
[1]
  egg or larval mortality: ≥ 80%
[2]
  control (at least one of mortality, anti-feedant effect, growth inhibition): at least 80%
[3]
  effect in at least one of the two categories (mortality or growth inhibition): ≥ 80%

## CC(C)(C)CC(=O)Nc1cccc(-c2ccc3c(c2)CC(c2cccc(C(F)(F)F)c2)(C(F)(F)F)O3)c1 (stereo not drawn) [Compound 112]
[1]
  egg or larval mortality: ≥ 80%
[2]
  control (at least one of mortality, anti-feedant effect, growth inhibition): at least 80%
[3]
  effect in at least one of the two categories (mortality or growth inhibition): ≥ 80%

## CSCCC(=O)Nc1cccc(-c2ccc3c(c2)CC(c2cccc(C(F)(F)F)c2)(C(F)(F)F)O3)c1 (stereo not drawn) [Compound 55]
[1]
  egg or larval mortality: ≥ 80%
[2]
  control (at least one of mortality, anti-feedant effect, growth inhibition): at least 80%
[3]
  effect in at least one of the two categories (mortality or growth inhibition): ≥ 80%

## N#CCCCC(=O)Nc1cccc(-c2ccc3c(c2)CC(c2cccc(C(F)(F)F)c2)(C(F)(F)F)O3)c1 (stereo not drawn) [Compound 67]
[1]
  egg or larval mortality: ≥ 80%
[2]
  control (at least one of mortality, anti-feedant effect, growth inhibition): at least 80%
[3]
  effect in at least one of the two categories (mortality or growth inhibition): ≥ 80%

## O=C(Cn1cccn1)Nc1cccc(-c2ccc3c(c2)CC(c2cc(Cl)cc(Cl)c2)(C(F)(F)F)O3)c1 (racemic) [Compound 99]
[1]
  egg or larval mortality: ≥ 80%
[2]
  control (at least one of mortality, anti-feedant effect, growth inhibition): at least 80%
[3]
  effect in at least one of the two categories (mortality or growth inhibition): ≥ 80%

## CC(C)(CCl)C(=O)Nc1cccc(-c2ccc3c(c2)CC(c2cccc(C(F)(F)F)c2)(C(F)(F)F)O3)c1 (stereo not drawn) [Compound 60]
[1]
  egg or larval mortality: ≥ 80%
[2]
  control (at least one of mortality, anti-feedant effect, growth inhibition): at least 80%
[3]
  effect in at least one of the two categories (mortality or growth inhibition): ≥ 80%

## CC=C(C)C(=O)Nc1cccc(-c2ccc3c(c2)CC(c2cccc(C(F)(F)F)c2)(C(F)(F)F)O3)c1 (stereo not drawn) [Compound 159]
[1]
  egg or larval mortality: ≥ 80%
[2]
  control (at least one of mortality, anti-feedant effect, growth inhibition): at least 80%
[3]
  effect in at least one of the two categories (mortality or growth inhibition): ≥ 80%

## O=C(C=NO)Nc1cccc(-c2ccc3c(c2)CC(c2cc(Cl)cc(Cl)c2)(C(F)(F)F)O3)c1 (racemic) [Compound 97]
[1]
  egg or larval mortality: ≥ 80%
[2]
  control (at least one of mortality, anti-feedant effect, growth inhibition): at least 80%
[3]
  effect in at least one of the two categories (mortality or growth inhibition): ≥ 80%

## O=C(Nc1cccc(-c2ccc3c(c2)CC(c2cccc(C(F)(F)F)c2)(C(F)(F)F)O3)c1)C1CCCO1 (stereo not drawn) [Compound 65]
[1]
  egg or larval mortality: ≥ 80%
[2]
  control (at least one of mortality, anti-feedant effect, growth inhibition): at least 80%
[3]
  effect in at least one of the two categories (mortality or growth inhibition): ≥ 80%

## O=C(Nc1ccnc(-c2ccc3c(c2)CC(c2cc(Cl)cc(Cl)c2)(C(F)(F)F)O3)c1)C1CC1 (stereo not drawn) [Compound 43]
[1]
  egg or larval mortality: ≥ 80%
[2]
  control (at least one of mortality, anti-feedant effect, growth inhibition): at least 80%
[3]
  effect in at least one of the two categories (mortality or growth inhibition): ≥ 80%

## Cc1cc2c(cc1-c1ccnc(NC(=O)C3CC3)c1)CC(c1cc(Cl)cc(Cl)c1)(C(F)(F)F)O2 (stereo not drawn) [Compound 47]
[1]
  egg or larval mortality: ≥ 80%
[2]
  control (at least one of mortality, anti-feedant effect, growth inhibition): at least 80%
[3]
  effect in at least one of the two categories (mortality or growth inhibition): ≥ 80%

## O=C(Nc1cccc(-c2ccc3c(c2)CC(c2cccc(C(F)(F)F)c2)(C(F)(F)F)O3)c1)c1cn[nH]c1 (stereo not drawn) [Compound 61]
[1]
  egg or larval mortality: ≥ 80%
[2]
  control (at least one of mortality, anti-feedant effect, growth inhibition): at least 80%
[3]
  effect in at least one of the two categories (mortality or growth inhibition): ≥ 80%

## O=C(Nc1nccc(-c2ccc3c(c2)CC(c2cc(Cl)cc(Cl)c2)(C(F)(F)F)O3)n1)C1CC1 (racemic) [Compound 93]
[1]
  egg or larval mortality: ≥ 80%
[2]
  control (at least one of mortality, anti-feedant effect, growth inhibition): at least 80%
[3]
  effect in at least one of the two categories (mortality or growth inhibition): ≥ 80%

## Cc1cc2c(cc1-c1cncc(NC(=O)C3CC3)c1)CC(c1cc(Cl)cc(Cl)c1)(C(F)(F)F)O2 (stereo not drawn) [Compound 48]
[1]
  egg or larval mortality: ≥ 80%
[2]
  control (at least one of mortality, anti-feedant effect, growth inhibition): at least 80%
[3]
  effect in at least one of the two categories (mortality or growth inhibition): ≥ 80%

## CCC(=O)Nc1cc(Cl)cc(-c2ccc3c(c2)CC(c2cc(Cl)cc(Cl)c2)(C(F)(F)F)O3)c1 (stereo not drawn) [Compound 51]
[1]
  egg or larval mortality: ≥ 80%
[2]
  control (at least one of mortality, anti-feedant effect, growth inhibition): at least 80%
[3]
  effect in at least one of the two categories (mortality or growth inhibition): ≥ 80%

## CCC(=O)Nc1ccc(Cl)c(-c2ccc3c(c2)CC(c2cc(Cl)cc(Cl)c2)(C(F)(F)F)O3)c1 (stereo not drawn) [Compound 50]
[1]
  egg or larval mortality: ≥ 80%
[2]
  control (at least one of mortality, anti-feedant effect, growth inhibition): at least 80%
[3]
  effect in at least one of the two categories (mortality or growth inhibition): ≥ 80%

## CCC(=O)Nc1ccnc(-c2ccc3c(c2)CC(c2cc(Cl)cc(Cl)c2)(C(F)(F)F)O3)n1 (stereo not drawn) [Compound 73]
[1]
  egg or larval mortality: ≥ 80%
[2]
  control (at least one of mortality, anti-feedant effect, growth inhibition): at least 80%
[3]
  effect in at least one of the two categories (mortality or growth inhibition): ≥ 80%
